# ± gives the standard deviation of the averaged measurements. This is a selection; strong and weak results do not stand in their true shares.
# Experiments:
# Experiment in all cases: NP40-soluble protein abundance relative to vehicle (solubility fold change) (ratio); higher = more soluble protein in presence of AMP-PNP
# [1] = target: T1, CDKAL1 (UniProt Q5VV42)
# T1 sequence (whole entry): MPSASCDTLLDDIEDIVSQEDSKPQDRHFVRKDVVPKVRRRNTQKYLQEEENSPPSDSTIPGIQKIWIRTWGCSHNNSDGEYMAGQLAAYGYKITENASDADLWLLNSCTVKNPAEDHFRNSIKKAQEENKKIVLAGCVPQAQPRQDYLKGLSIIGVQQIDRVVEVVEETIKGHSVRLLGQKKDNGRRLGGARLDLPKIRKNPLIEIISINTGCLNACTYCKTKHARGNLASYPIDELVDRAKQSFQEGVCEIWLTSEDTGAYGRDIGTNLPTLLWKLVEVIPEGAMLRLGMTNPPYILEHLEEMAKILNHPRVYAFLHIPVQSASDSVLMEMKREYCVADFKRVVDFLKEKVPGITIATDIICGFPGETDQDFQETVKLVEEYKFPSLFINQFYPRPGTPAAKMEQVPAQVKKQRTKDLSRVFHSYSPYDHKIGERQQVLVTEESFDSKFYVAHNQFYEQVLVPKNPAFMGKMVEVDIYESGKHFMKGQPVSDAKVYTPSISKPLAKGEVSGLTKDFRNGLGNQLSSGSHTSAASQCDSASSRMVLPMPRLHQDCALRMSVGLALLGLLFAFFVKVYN
# Method in brief: (§1)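 Crude Jurkat lysate, prepared by Dounce homogenisation, was exposed to eight concentrations from 0.1 to 10 mM for 10 min at room temperature and then 3 min at 37 °C. Solubilisation used 0.8% NP40 with benzonase for 60 min at 4 °C, followed by ultracentrifugation and TMT labelling of the supernatant for LC-MS/MS. After vsn normalisation of intensities, each value is the fold change against the detergent-processed vehicle within each replicate, across three independent experiments.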
# [2] = target: T2, FAHD1 (UniProt Q6P587)
# T2 sequence (whole entry): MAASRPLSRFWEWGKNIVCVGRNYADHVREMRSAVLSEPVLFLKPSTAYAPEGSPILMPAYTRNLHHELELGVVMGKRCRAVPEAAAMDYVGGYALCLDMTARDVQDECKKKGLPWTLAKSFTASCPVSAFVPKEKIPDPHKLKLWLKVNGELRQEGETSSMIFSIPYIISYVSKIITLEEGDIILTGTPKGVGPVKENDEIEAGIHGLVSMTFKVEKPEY
# Method in brief: as §1
# [3] = target: T3, NCR3LG1 (UniProt Q68D85)
# T3 sequence (whole entry): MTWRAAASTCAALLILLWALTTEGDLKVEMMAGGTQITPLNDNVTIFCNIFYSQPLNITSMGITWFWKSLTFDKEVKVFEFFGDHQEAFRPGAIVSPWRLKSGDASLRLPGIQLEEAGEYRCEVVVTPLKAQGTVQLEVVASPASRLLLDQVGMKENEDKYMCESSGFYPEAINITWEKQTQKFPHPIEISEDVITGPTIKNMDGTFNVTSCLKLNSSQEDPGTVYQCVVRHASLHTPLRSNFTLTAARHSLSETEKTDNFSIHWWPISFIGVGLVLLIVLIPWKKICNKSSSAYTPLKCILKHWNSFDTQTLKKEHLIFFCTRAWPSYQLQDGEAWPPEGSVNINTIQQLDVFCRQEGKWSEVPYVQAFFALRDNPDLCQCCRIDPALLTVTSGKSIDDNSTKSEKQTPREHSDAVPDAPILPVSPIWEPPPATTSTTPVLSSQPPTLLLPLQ
# Method in brief: as §1
# [4] = target: T4, NUFIP2 (UniProt Q7Z417)
# T4 sequence (whole entry): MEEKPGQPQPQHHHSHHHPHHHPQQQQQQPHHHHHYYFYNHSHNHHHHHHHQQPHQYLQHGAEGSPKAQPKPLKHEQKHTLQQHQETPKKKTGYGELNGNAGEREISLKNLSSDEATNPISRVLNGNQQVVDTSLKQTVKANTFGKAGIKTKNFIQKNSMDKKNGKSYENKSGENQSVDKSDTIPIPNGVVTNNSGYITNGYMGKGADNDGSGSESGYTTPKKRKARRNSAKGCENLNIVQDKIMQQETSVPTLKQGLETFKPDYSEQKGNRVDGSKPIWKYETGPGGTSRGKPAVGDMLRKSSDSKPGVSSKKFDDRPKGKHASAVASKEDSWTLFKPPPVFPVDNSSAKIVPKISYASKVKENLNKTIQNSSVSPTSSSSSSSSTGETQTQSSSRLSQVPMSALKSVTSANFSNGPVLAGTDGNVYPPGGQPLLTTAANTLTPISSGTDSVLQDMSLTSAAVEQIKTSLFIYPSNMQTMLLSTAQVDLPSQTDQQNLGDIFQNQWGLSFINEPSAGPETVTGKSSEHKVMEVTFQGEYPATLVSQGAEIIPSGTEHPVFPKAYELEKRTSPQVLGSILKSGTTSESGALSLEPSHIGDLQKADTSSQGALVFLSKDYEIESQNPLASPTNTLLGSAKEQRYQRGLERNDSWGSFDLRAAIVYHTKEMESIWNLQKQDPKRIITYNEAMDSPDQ
# Method in brief: as §1
# [5] = target: T5, PRPF38B (UniProt Q5VTL8)
# T5 sequence (whole entry): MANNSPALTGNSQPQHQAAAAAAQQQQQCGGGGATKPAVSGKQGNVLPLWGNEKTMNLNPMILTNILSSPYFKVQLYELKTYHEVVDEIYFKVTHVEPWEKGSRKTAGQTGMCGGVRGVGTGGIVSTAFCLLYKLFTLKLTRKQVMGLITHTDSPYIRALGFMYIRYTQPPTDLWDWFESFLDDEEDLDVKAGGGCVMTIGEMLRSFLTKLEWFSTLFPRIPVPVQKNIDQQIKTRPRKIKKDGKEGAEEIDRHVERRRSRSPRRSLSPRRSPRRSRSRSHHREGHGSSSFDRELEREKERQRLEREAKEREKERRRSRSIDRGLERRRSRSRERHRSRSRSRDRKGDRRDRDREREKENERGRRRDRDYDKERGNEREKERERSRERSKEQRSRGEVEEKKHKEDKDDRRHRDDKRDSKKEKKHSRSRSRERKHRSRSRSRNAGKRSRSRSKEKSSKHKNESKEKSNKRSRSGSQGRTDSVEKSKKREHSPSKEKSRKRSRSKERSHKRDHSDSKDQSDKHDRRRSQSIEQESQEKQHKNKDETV
# Method in brief: as §1
smiles,measurement,setting,value
Nc1ncnc2c1ncn2[C@@H]1O[C@H](COP(=O)(O)OP(=O)(O)NP(=O)(O)O)[C@@H](O)[C@H]1O [adenylyl imidodiphosphate],NP40-soluble protein abundance,[1]; concentration: 1mM,0.9774 ± 0.0092
same,NP40-soluble protein abundance,[1]; concentration: 2mM,0.924 ± 0.07
same,NP40-soluble protein abundance,[1]; concentration: 4mM,0.9696 ± 0.0065
same,NP40-soluble protein abundance,[1]; concentration: 6mM,0.937 ± 0.012
same,NP40-soluble protein abundance,[1]; concentration: 8mM,0.937 ± 0.0095
same,NP40-soluble protein abundance,[1]; concentration: 10mM,0.918 ± 0.023
same,NP40-soluble protein abundance,[2]; concentration: 1mM,0.967 ± 0.024
same,NP40-soluble protein abundance,[2]; concentration: 2mM,0.969 ± 0.011
same,NP40-soluble protein abundance,[2]; concentration: 4mM,1.01 ± 0.034
same,NP40-soluble protein abundance,[2]; concentration: 6mM,0.992 ± 0.044
same,NP40-soluble protein abundance,[2]; concentration: 8mM,1.03 ± 0.022
same,NP40-soluble protein abundance,[2]; concentration: 10mM,1 ± 0.039
same,NP40-soluble protein abundance,[3]; concentration: 1mM,1.03 ± 0.077
same,NP40-soluble protein abundance,[3]; concentration: 2mM,1.031 ± 0.009
same,NP40-soluble protein abundance,[3]; concentration: 4mM,1.04 ± 0.035
same,NP40-soluble protein abundance,[3]; concentration: 6mM,0.984 ± 0.021
same,NP40-soluble protein abundance,[3]; concentration: 8mM,0.982 ± 0.011
same,NP40-soluble protein abundance,[3]; concentration: 10mM,0.992 ± 0.042
same,NP40-soluble protein abundance,[4]; concentration: 1mM,1.11 ± 0.029
same,NP40-soluble protein abundance,[4]; concentration: 2mM,1.22 ± 0.066
same,NP40-soluble protein abundance,[4]; concentration: 4mM,1.24 ± 0.023
same,NP40-soluble protein abundance,[4]; concentration: 6mM,1.26 ± 0.14
same,NP40-soluble protein abundance,[4]; concentration: 8mM,1.27 ± 0.14
same,NP40-soluble protein abundance,[4]; concentration: 10mM,1.37 ± 0.12
same,NP40-soluble protein abundance,[5]; concentration: 1mM,1.03 ± 0.033
same,NP40-soluble protein abundance,[5]; concentration: 2mM,1.03 ± 0.074
same,NP40-soluble protein abundance,[5]; concentration: 4mM,1.03 ± 0.08
same,NP40-soluble protein abundance,[5]; concentration: 6mM,1.04 ± 0.049
same,NP40-soluble protein abundance,[5]; concentration: 8mM,1.06 ± 0.029
same,NP40-soluble protein abundance,[5]; concentration: 10mM,1.11 ± 0.09

# 2 records picked at random from the list so far:
smiles,measurement,setting,value
Nc1ncnc2c1ncn2[C@@H]1O[C@H](COP(=O)(O)OP(=O)(O)NP(=O)(O)O)[C@@H](O)[C@H]1O [adenylyl imidodiphosphate],NP40-soluble protein abundance,[5]; concentration: 4mM,1.03 ± 0.08
same,NP40-soluble protein abundance,[4]; concentration: 8mM,1.27 ± 0.14
